Experimental data: PubChem BioAssay AID1259254 (NCATS, 2017)
In all, the deposit lists about 59,000 reagents; this is an unselected part. Over the whole deposit, about 1,550 (2.6%) are marked active. 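G2 share is only a proxy for re-replication; each gene was hit by three separate siRNAs, and active genes were retested.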 Raw values are not corrected between plates. Entries without a mark were called inactive. The numbers tell different reagents against one gene apart. The record does not give: the amount of reagent.

- Aim: 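Genome-wide screen for genes that prevent DNA re-replication in cancer cells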 (primary screen)
- Cell system: human HCT116 colorectal cancer cells
- Knock-down reagent: single siRNA against human genes
- Duration: 3 days
- Read-out: 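Nuclei stained with Hoechst and imaged; cell-cycle phase assigned by DNA content; G2 share scaled per plate, non-targeting siRNA 0%, GMNN siRNA 100%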
- Direction: G2 robust z-score and G2 cells, % of GMNN control: higher = more G2 cells, more excess DNA replication; raw share of cells in G2: higher = larger share of cells with G2 DNA content
- Hit rule: 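Active siRNAs have a G2 robust z of 5 or more median absolute deviations over the median, which in these data means about 38% or higher of GMNN control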

gene knocked down	reagent no.	G2 robust z-score	G2 cells, % of GMNN control	raw share of cells in G2 (%)
MSANTD2 (Myb/SANT DNA binding domain containing 2)	1	0.915	9.41	8.35
MSANTD2 (Myb/SANT DNA binding domain containing 2)	2	2.52	20.7	13.4
MSANTD2 (Myb/SANT DNA binding domain containing 2)	3	-0.687	-1.87	1.87
DOCK1 (dedicator of cytokinesis 1)	1	0.643	7.49	7.73
DOCK1 (dedicator of cytokinesis 1)	2	-0.43	-0.0609	4.08
DOCK1 (dedicator of cytokinesis 1)	3	0.342	5.37	6.88
MCM8	1	-0.37	0.364	4.92
MCM8	2	5.18 (active)	39.4	21.9
MCM8	3	-0.389	0.233	4.28
GANC (glucosidase alpha, neutral C)	1	1.21	11.5	9.41
GANC (glucosidase alpha, neutral C)	2	0.813	8.69	6.75
GANC (glucosidase alpha, neutral C)	3	-0.474	-0.371	5.12
SEPHS2 (selenophosphate synthetase 2)	1	0.843	8.9	6.91
SEPHS2 (selenophosphate synthetase 2)	2	0.155	4.06	8
SEPHS2 (selenophosphate synthetase 2)	3	-0.443	-0.15	4.11
MUC1 (mucin 1, cell surface associated)	1	-0.269	1.08	5.43
MUC1 (mucin 1, cell surface associated)	2	0.705	7.93	7.35
MUC1 (mucin 1, cell surface associated)	3	-0.219	1.42	3.87
CCDC87 (coiled-coil domain containing 87)	1	-1.39	-6.82	1.9
CCDC87 (coiled-coil domain containing 87)	2	-0.166	1.8	4.88
CCDC87 (coiled-coil domain containing 87)	3	-0.932	-3.59	1.99
RBM26 (RNA binding motif protein 26)	1	-0.544	-0.857	5.29
RBM26 (RNA binding motif protein 26)	2	-0.151	1.9	4.92
RBM26 (RNA binding motif protein 26)	3	-0.191	1.62	4.92
LSP1 (lymphocyte specific protein 1)	1	1.05	10.4	9.38
LSP1 (lymphocyte specific protein 1)	2	-0.681	-1.82	3.5
LSP1 (lymphocyte specific protein 1)	3	-0.219	1.43	3.87
NT5DC2 (5'-nucleotidase domain containing 2)	1	-1.02	-4.2	2.75
NT5DC2 (5'-nucleotidase domain containing 2)	2	-0.911	-3.44	3.07
NT5DC2 (5'-nucleotidase domain containing 2)	3	-0.904	-3.4	1.8

Looked up above:
CCDC87 (coiled-coil domain containing 87) #2, G2 robust z-score → -0.166
SEPHS2 (selenophosphate synthetase 2) #3, G2 cells, % of GMNN control → -0.15
